Test results published in paper PMC11810119.
No constants are given. Whether binding was seen depends on the method and setting. Binding seen in cells or lysates may run through a third protein. Here binding means that the protein was enriched with, or labelled near, the bait; the list need not be complete.

The chains behind the UniProt entries cited, without tags or fusion partners.
UniProt O35889: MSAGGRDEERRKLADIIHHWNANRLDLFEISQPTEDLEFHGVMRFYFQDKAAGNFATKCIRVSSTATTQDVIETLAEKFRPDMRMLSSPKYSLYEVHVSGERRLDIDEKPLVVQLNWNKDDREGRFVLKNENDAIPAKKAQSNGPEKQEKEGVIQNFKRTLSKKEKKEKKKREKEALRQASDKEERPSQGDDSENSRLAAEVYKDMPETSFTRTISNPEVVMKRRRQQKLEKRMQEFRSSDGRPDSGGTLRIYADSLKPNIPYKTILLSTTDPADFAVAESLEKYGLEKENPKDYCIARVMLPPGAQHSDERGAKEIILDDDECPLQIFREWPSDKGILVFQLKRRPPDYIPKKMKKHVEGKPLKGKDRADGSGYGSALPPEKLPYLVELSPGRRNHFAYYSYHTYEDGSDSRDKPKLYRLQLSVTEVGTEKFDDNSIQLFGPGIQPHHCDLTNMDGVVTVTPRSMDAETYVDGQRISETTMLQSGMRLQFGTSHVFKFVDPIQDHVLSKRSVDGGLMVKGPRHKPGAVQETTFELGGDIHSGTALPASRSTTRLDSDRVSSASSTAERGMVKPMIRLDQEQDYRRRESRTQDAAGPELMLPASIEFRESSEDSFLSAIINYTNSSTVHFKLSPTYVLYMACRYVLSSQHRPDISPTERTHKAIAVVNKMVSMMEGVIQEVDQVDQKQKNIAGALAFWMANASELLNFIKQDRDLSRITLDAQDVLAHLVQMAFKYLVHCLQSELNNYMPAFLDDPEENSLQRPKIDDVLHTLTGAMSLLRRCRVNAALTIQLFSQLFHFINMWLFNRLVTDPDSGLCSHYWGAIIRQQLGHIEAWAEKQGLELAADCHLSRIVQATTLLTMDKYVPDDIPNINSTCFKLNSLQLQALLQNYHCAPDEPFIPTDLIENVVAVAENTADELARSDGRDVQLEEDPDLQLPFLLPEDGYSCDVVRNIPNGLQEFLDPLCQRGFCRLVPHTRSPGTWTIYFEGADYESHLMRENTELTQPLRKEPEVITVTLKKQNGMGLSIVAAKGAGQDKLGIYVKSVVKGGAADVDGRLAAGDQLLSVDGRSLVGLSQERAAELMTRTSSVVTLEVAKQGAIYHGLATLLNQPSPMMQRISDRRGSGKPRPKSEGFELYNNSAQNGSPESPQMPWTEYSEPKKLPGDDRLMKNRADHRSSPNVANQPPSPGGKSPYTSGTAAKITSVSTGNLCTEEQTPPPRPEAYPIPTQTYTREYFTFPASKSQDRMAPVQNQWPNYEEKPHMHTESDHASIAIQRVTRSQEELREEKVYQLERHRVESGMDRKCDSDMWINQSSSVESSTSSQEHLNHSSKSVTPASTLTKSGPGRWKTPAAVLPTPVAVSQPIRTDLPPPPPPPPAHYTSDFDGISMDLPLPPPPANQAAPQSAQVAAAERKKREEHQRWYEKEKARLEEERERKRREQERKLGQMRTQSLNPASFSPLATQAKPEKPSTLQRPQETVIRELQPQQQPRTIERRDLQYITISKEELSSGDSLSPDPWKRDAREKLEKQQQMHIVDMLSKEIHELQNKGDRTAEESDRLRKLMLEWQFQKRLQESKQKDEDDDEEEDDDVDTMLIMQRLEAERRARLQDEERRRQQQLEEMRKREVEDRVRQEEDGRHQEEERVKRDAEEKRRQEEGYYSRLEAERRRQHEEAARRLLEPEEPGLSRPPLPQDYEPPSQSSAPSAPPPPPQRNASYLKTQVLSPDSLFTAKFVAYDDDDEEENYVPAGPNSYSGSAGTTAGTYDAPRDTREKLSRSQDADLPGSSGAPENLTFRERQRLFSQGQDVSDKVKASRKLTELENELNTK

Tests used:
BL-Afadin (rat) [1] = target: BL-Afadin (rat) (UniProt O35889); test: proximity labelling; BirA*-Afadin fusion in stable MDCK lines, biotin over a time course of hours, biotinylated proteins affinity-purified with streptavidin, immunoblot for junctional and cytoskeletal proteins
Afadin-BL (rat) [2] = target: Afadin-BL (rat) (UniProt O35889); test: as above
BL-Afadin (rat) [3] = target: BL-Afadin (rat) (UniProt O35889); test: proximity labelling; BioID: BirA*-Afadin fusion expressed in MDCK cells (duplicates; one replicate each also in ZO-1/ZO-2 knock-down MDCK cells), 50 µM biotin for 24 h, lysates on streptavidin Dynabeads, trypsin digestion, label-free LC-MS/MS; hits SAINT >=0.9 versus BirA* alone
Afadin-BL (rat) [4] = target: Afadin-BL (rat) (UniProt O35889); test: as above

binding (BL-Afadin (rat) [1]): binds | binding (Afadin-BL (rat) [2]): binds | binding (BL-Afadin (rat) [3]): binds | binding (Afadin-BL (rat) [4]): binds
B1: Tight junction protein 2=ZO-2 (protein, UniProt Q95168 1-1174)
chain: MEELIWEQYTVTLQKDSKRGFGIAVSGGRDNPHFENGETSIVISDVLPGGPADGLLQENDRVVMVNGTPMEDVLHSFAVQQLRKSGKIAAIVVKRPRKVQLAPPQGSLPVDEDDRAFEVMDEFDGRSARSGYSERSRRSSHGGRSRSWEDSPERGRPHERAWSQERERSRGRSLERGLDHDDDYRRPRERSRGRSLERGLDHDDDYGRPGERSHGMSTDRGYDRGYDRGYDRGYDRTYSPEAEYGRRTQPDARHAGSRSRSREHLRSRSPSPELRGRPDHAGQPDSDRPIGVLLMKSKANEEYGLRLGSQIFIKQMTRTALATKDGNLHEGDIILKINGTVTENMSLTDARKLIEKSRGKLQLVVLRDSKQTLINIPSLNDSDSEIEDISEIESNRSFSPEERRQQYSDYDYHSSNEKLKERPNSREDMQNRWSRMGATPTPFKSMGDIASVVGTENSKEPRYQEEPPAPQPKAAPRTFLRPSPEDEAIYGPNTKMVRFKKGDSVGLRLAGGNDVGIFVAGIQEGTSAEQEGLQEGDQILKVNTQDFRGLVREDAVLYLLEIPKGEMVTILAQSRADVYRDILACGRGDSFFIRSHFECEKETPQSLAFSRGEVFRVVDTLYDGKLGHWLAVRIGNELEKGLIPNKSRAEQMASVQNAQRDNAGDRADFWRMRGQRSGMKKNLRKSREDLTAAVSVSTKFPAYERVLLREAGFKRPVVLFGPIADIALEKLANELPDLFQTAKTEPKDAGSEKSSGVVRLNTVRQIIEQDKHALLDVTPKAVDLLNYTQWFPIVIFFNPDSRQGVKTMRQRLNPTSNKSSRKLYDQANKLKKTCAHLFTATINLNSANDSWFGSLKDTIQHQQGEAVWVSEGKMEGMDDDPEDRMSYLTAMGADYLSCDSRLISDFEDTDGEGGAYTDNELDEPAEEPLVSSITRSSEPVQHEESIRKPSPEPRAQMRRAASRDQLRDSSPPPAFKPEPPKAKTQNREESFDISRSHDYKSNPSAVAGNEVSGASTRSCPPPIAAKPSFGRSILKPSTPVPSPESEEVGEGSEEQEGAPKSVLGKVKIFEKMDHKARLQRMQELQEAQNARIEIAQKHPDIYAVPIKTHKPDPGLSQHTSSRPPEPQKGPSRLYQDPRGSYGSDAEEEEYRQQLSEHSKRGYYSQPSRYRDTEL
